{"source": "PubChem BioAssay AID1508597, Cure First, 2020", "purpose": "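Genes whose silencing sensitises or protects ovarian cancer cells against rucaparib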 (primary screen)", "cell system": "human ovarian carcinoma lines grown from tumours: OCI-P5x (papillary serous) and OCI-C5x (clear cell)", "reagents": "siRNA pool against human genes, 1.25 pmol siRNA per well", "time to read-out": "72 h or 96 h, depending on the cell culture", "challenge": "rucaparib 20 µM (about IC30) or vehicle, present until read-out", "rucaparib or vehicle": "Vehicle", "cell line": "OCI-C5x (clear cell)", "measurement": "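Luminescent ATP-based viability assay read 72 or 96 h after transfection, depending on culture, given as normalised percent viability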", "reading the numbers": "viability, normalised: higher = more viable cells remaining", "active means": "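a well counts as a hit if its normalised viability is under 80 percent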", "calls": "active = viability under 80%; inactive = viability 80% or more", "note": "This is an unselected part of the about 2,100 reagents, under one of the conditions tested. 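Calls flag viability under 80% in either arm, not effects specific to rucaparib; the reference for percent is not stated.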 A reagent listed more than once was tested more than once; the source does not tell the runs apart. Not given: the 100% reference."}
{"gene":"FOXA3","technical replicate":"1","viability, normalised (%)":41.3,"activity call":"active"}
{"gene":"FOXA3","technical replicate":"2","viability, normalised (%)":53.5,"activity call":"active"}
{"gene":"FOXA3","technical replicate":"3","viability, normalised (%)":65.9,"activity call":"active"}
{"gene":"SETD1B","technical replicate":"1","viability, normalised (%)":42.5,"activity call":"active"}
{"gene":"SETD1B","technical replicate":"2","viability, normalised (%)":30.5,"activity call":"active"}
{"gene":"SETD1B","technical replicate":"3","viability, normalised (%)":40.4,"activity call":"active"}
{"gene":"CASP7","technical replicate":"1","viability, normalised (%)":48.6,"activity call":"active"}
{"gene":"CASP7","technical replicate":"2","viability, normalised (%)":39.5,"activity call":"active"}
{"gene":"CASP7","technical replicate":"3","viability, normalised (%)":62.3,"activity call":"active"}
{"gene":"UHRF2","technical replicate":"1","viability, normalised (%)":79.2,"activity call":"active"}
{"gene":"UHRF2","technical replicate":"2","viability, normalised (%)":41.9,"activity call":"active"}
{"gene":"UHRF2","technical replicate":"3","viability, normalised (%)":68.8,"activity call":"active"}
{"gene":"CNP","technical replicate":"1","viability, normalised (%)":59,"activity call":"active"}
{"gene":"CNP","technical replicate":"2","viability, normalised (%)":55.9,"activity call":"active"}
{"gene":"CNP","technical replicate":"3","viability, normalised (%)":51.6,"activity call":"active"}
{"gene":"GSK3B","technical replicate":"1","viability, normalised (%)":53,"activity call":"active"}
{"gene":"GSK3B","technical replicate":"1","viability, normalised (%)":45.1,"activity call":"active"}
{"gene":"GSK3B","technical replicate":"2","viability, normalised (%)":55.5,"activity call":"active"}
{"gene":"GSK3B","technical replicate":"2","viability, normalised (%)":46.2,"activity call":"active"}
{"gene":"GSK3B","technical replicate":"3","viability, normalised (%)":62.6,"activity call":"active"}
{"gene":"GSK3B","technical replicate":"3","viability, normalised (%)":53.2,"activity call":"active"}
{"gene":"H2AX","technical replicate":"1","viability, normalised (%)":63.2,"activity call":"active"}
{"gene":"H2AX","technical replicate":"2","viability, normalised (%)":48.2,"activity call":"active"}
{"gene":"H2AX","technical replicate":"3","viability, normalised (%)":50.9,"activity call":"active"}
{"gene":"CNOT12","technical replicate":"1","viability, normalised (%)":41.2,"activity call":"active"}
{"gene":"CNOT12","technical replicate":"2","viability, normalised (%)":29,"activity call":"active"}
{"gene":"CNOT12","technical replicate":"3","viability, normalised (%)":32.1,"activity call":"active"}
{"gene":"DDX50","technical replicate":"1","viability, normalised (%)":40,"activity call":"active"}
{"gene":"DDX50","technical replicate":"2","viability, normalised (%)":44.1,"activity call":"active"}
{"gene":"DDX50","technical replicate":"3","viability, normalised (%)":39,"activity call":"active"}
{"gene":"MED4","technical replicate":"1","viability, normalised (%)":43.8,"activity call":"active"}
{"gene":"MED4","technical replicate":"2","viability, normalised (%)":56,"activity call":"active"}
{"gene":"MED4","technical replicate":"3","viability, normalised (%)":53.5,"activity call":"active"}
{"gene":"PLK3","technical replicate":"1","viability, normalised (%)":74.6,"activity call":"active"}
{"gene":"PLK3","technical replicate":"2","viability, normalised (%)":71.5,"activity call":"active"}
{"gene":"PLK3","technical replicate":"3","viability, normalised (%)":71.6,"activity call":"active"}
{"gene":"TNRC6B","technical replicate":"1","viability, normalised (%)":36.9,"activity call":"active"}
{"gene":"TNRC6B","technical replicate":"2","viability, normalised (%)":41.1,"activity call":"active"}
{"gene":"TNRC6B","technical replicate":"3","viability, normalised (%)":48,"activity call":"active"}
{"gene":"TINF2","technical replicate":"1","viability, normalised (%)":76.3,"activity call":"active"}
{"gene":"TINF2","technical replicate":"2","viability, normalised (%)":62,"activity call":"active"}
{"gene":"TINF2","technical replicate":"3","viability, normalised (%)":47.7,"activity call":"active"}
